In test [1] the target is in vitro translated S. purpuratus p60 katanin with 37 amino acid N-terminal S-Tag (Strongylocentrotus purpuratus) (UniProt O61577). Kind of test: in vitro co-translation, co-immunoprecipitation with anti-p60 antibody, S-protein HRP blot.
Test [2] has the same target. The test can be described thus: in vitro co-translation, co-immunoprecipitation with p60-specific antibody, chemiluminescence blot.

Sequences of proteins named here, by UniProt entry; tags and fusion partners are left off. A change or cut given only in a name is not applied to a line headed by its entry.
UniProt O61577: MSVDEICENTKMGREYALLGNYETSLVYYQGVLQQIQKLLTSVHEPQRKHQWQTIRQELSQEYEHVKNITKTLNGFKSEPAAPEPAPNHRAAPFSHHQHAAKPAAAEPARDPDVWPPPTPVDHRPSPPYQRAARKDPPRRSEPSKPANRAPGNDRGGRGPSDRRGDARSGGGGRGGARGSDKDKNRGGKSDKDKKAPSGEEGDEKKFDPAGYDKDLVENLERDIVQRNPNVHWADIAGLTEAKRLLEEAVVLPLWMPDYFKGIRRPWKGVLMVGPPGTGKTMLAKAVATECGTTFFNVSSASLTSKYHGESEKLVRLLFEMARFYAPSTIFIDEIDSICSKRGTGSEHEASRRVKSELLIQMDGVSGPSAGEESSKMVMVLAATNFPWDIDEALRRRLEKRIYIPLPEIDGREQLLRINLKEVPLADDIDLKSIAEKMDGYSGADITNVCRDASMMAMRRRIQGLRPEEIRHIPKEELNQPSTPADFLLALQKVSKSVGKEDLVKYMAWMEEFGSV

Results are given in words; binding and its absence hold for the method and conditions named. In cells and extracts the contact can be indirect. Some results given as binding are weak or reduced against the parent protein; the word gives no strength. Sequences can lack the tags named with a protein.

B1: p80 delta 1-302, truncated S. purpuratus p80 katanin lacking the entire WD40 domain, with N-terminal S-Tag (protein, not shown: small tags and cut ends)
chain: TTGIAQEPQSQPSKTPSGGAEEVPSKPLTASGRKNFVRERPHTTSSKQRQPDVKSEPERQSPTQDEGVKDDDATDIKDPDSYAKIFSPKTRVDHSPERNAQPFPAPLDVPGAQEPEPFKHPPKPAAAAAVAPVSRAPAPSASDWQPAQANPAPNRVPAATKPVPAQEVAPSRKPDPISTIIPSDRNKPANLDMDAFLPPAHAQQAPRVNAPASRKQSDSERIEGLRKGHDSMCQVLSSRHRNLDVVRAIWTAGDAKTSVESVVNMKDQAILVDILNIMLLKKSLWNLDMCVVVLPRLKELLSSKYENYVHTSCACLKLILKNFTSLFNQNIKCPPSGIDITREERYNKCSKCYSYLIATRGYVEEKQHVSGKLGSSFRELHLLLDQLE
Consider B1, for which the binding entry in test [1] and in test [2] was “binds” throughout.

The values above are taken from patent publication US6699969.
